This experiment deals with T1, Tos4 (S. cerevisiae) (UniProt Q06266).
T1 sequence: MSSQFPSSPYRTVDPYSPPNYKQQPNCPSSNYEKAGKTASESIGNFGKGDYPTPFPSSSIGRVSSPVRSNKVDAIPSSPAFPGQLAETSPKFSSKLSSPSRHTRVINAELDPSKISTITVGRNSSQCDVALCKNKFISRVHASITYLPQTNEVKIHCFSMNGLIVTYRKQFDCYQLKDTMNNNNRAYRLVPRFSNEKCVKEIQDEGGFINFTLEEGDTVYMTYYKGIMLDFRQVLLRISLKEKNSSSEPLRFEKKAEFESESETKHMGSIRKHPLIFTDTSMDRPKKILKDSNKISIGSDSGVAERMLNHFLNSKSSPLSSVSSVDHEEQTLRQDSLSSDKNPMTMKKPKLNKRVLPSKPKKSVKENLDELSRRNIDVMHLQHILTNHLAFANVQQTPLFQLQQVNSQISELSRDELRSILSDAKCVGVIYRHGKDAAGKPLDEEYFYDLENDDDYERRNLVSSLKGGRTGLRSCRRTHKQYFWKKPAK
The experiment is described as follows: two-hybrid.

Results are given in words; binding and its absence hold for the method and conditions named. Some entries that bind do so weakly or less than the wild type.

B1: Oca1 (protein, UniProt P50946 1-238)
chain: MTSKVGEYEDVPEDESRLTEENVSVPEEEVEDEDEEEDDDDDHIYINEETESGREKVLVSHAPQERIVPPLNFCPVERYLYRSGQPSPVNFPFLLNLKLKTIIWLSNEEPQDTLLEFCDTHRINLQFAAINPDAGEDDNPWDGLTEHSIINVLQTIVTQENYPLLVCCGMGRHRTGTVIGCLRRIMGWNLASVSEEYRRFTGSRGGRILVELLIEAFDTNLVKIDKNKAPSWLLTALE
With B1, the binding entry is “binds”.

The record behind these values is publication doi:10.1101/2021.03.16.435663.
